The list shows a part of the results.

Consider 42 sequences from paper PMC7819943, “Rice protein-binding microarrays: a tool to detect cis-acting elements near promoter regions in rice”.

The experiment deals with T1, OsSMF1 (Oryza sativa, UniProt Q6ZLB0 1-436).
T1 sequence: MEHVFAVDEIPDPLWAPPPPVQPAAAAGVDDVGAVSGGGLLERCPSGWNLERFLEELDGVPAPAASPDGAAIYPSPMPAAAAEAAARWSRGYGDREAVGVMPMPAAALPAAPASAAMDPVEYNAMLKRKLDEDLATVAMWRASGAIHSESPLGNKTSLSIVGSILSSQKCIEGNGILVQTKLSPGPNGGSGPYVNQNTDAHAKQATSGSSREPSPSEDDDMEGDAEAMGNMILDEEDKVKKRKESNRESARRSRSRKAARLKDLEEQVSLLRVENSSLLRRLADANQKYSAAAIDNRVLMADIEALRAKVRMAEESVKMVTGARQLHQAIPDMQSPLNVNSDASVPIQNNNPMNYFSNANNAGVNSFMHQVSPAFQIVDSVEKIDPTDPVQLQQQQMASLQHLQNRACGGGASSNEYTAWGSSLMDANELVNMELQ
Briefly: protein-binding microarray (RPBM); PBS, 2% BSA, 51.3 ng/ul salmon testes DNA, 50 uM zinc acetate, 200 nM TF, 25 C, 1 h; high values mean tight binding. The note with it: protein: recombinant; tags: N-terminal polyhistidine and DsRed monomer fusion (pET32a); chain copies: 2; label: CyDye5-dUTP incorporated in the synthesized complementary strand; 3' TTTTT single-stranded linker to array surface; dsDNA, one strand shown. The essentials: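 The binding signal for each feature is its fluorescence intensity in arbitrary units. An Axon 4000B scanner was used to read a custom Agilent array that had been made double-stranded with Cy5-dUTP primer extension, blocked with 2% BSA, incubated at 25 °C for 1 h with 200 nM protein in PBS, 2% BSA, salmon testes DNA and 50 µM zinc acetate, and washed. The protein was an N-terminal polyhistidine–DsRed transcription factor fusion from E. coli BL21-CodonPlus, purified on Ni–NTA.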
For the sequence “TTGAGAAATTTTGTCATGACGCAGAATACCACTACTCAACCGGAGTCACCTAGTGCAG”, the binding signal is 3630 fluorescence intensity (a.u.). Consider “TTTTCTGTTGTGTGCAGAAAAGAATACGTGGTGCTTAATTCGGAGTCACCTAGTGCAG”, for which the binding signal is 3140 fluorescence intensity (a.u.). To “TGTTGGTTGCCACACGTATATTTGGGCCCCTTATCCATCCCGGAGTCACCTAGTGCAG” belongs 4300 fluorescence intensity (a.u.); to “AAGCTGACGGTGAGCCCGGCGGTGACGCAGGCGCAGCAGCCGGAGTCACCTAGTGCAG”, 4280 fluorescence intensity (a.u.).

“GCTTATGCAGTCAAGGAATCTCTCGACGTAACTGCAGCACCGGAGTCACCTAGTGCAG”: the binding signal was 3390 fluorescence intensity (a.u.). Consider “ATACAGCTTGATTCCGTCGTCACAGGGCTCACACACACCTCGGAGTCACCTAGTGCAG”, for which the binding signal was 3370 fluorescence intensity (a.u.). For “TTCATCAAAAGCATAGACGGGGAATTTGTCATGATAATTGCGGAGTCACCTAGTGCAG”, the binding signal is 18300 fluorescence intensity (a.u.). Regarding “TTTCGTAATGCTGCTTTTGTCAGGGTTGTTCTGAAACTTGCGGAGTCACCTAGTGCAG”, the binding signal is 15400 fluorescence intensity (a.u.).

As to “CGGAAGAAGGCCGCTGCTGCTGCAGCGGCGGCGGCCAAGACGGAGTCACCTAGTGCAG”, the binding signal was 3210 fluorescence intensity (a.u.). As for “GCGCCCACTGCTAACTCCGACCGCCATGACACCTCTGGTTCGGAGTCACCTAGTGCAG”, the binding signal is 3630 fluorescence intensity (a.u.). Consider “ACCGCCACGGCGCCACCCATGAAGTTCGCCTCACAGTCACCGGAGTCACCTAGTGCAG”, for which the binding signal was 3280 fluorescence intensity (a.u.). The result for “TCGTCTCCTCACCCCGCTGCTTCTCGACACCGCCACCGCACGGAGTCACCTAGTGCAG” reads 3320 fluorescence intensity (a.u.). The result for “CATGCAACATACCCATCCCATCGTCATCCTCATCATCATCCGGAGTCACCTAGTGCAG” reads 3660 fluorescence intensity (a.u.).

In the case of “GTGGGCCATACGTGTGGCTCGTAGTCTCTTACGTTCACTGCGGAGTCACCTAGTGCAG”, the binding signal is 3650 fluorescence intensity (a.u.).

As to “GGGCAACTTGATACTGTGAAACATGTCATCTACGTAAACGCGGAGTCACCTAGTGCAG”, the binding signal is 4810 fluorescence intensity (a.u.). On to “ACGCGCACCAGTGCGCCTGACTCGACCAGCGCGGCGAGCGCGGAGTCACCTAGTGCAG”, for which the binding signal is 4960 fluorescence intensity (a.u.).

For the sequence “CACCCAAGCCAAGCCCACGACCCGCACCGCAACACGCACACGGAGTCACCTAGTGCAG”, the binding signal is 24200 fluorescence intensity (a.u.). Turning to “GTGTGGCATGCCACATCAACGCCACGTAGAATTCTGAAAGCGGAGTCACCTAGTGCAG”, the binding signal was 5240 fluorescence intensity (a.u.). For the sequence “AGATTAAAGAGGTTTCAAATAAATGAAATGAGTCATACGCCGGAGTCACCTAGTGCAG”, the binding signal is 8130 fluorescence intensity (a.u.). “GGCACAGTGGCATCTCTAGTACTCCGTACTACTGCTACTACGGAGTCACCTAGTGCAG”: the binding signal is 20300 fluorescence intensity (a.u.). Take “AACTAGATTACATCACTTGTCGGGTGATACTTTACATGTTCGGAGTCACCTAGTGCAG”: the binding signal is 4100 fluorescence intensity (a.u.). For the sequence “GATGGACCAATTTGATTGTTGTTGGATTCTACGATGCATGCGGAGTCACCTAGTGCAG”, the binding signal was 3780 fluorescence intensity (a.u.). For the sequence “TGTGCTCGCGGGTGTGTGTGACGTGCGCGTGTAGTGGTGTCGGAGTCACCTAGTGCAG”, the binding signal is 7370 fluorescence intensity (a.u.). Regarding “TTCGCGCGCCCCTCTCGCCCTTCGCTATCGCTACACACCACGGAGTCACCTAGTGCAG”, the binding signal was 3890 fluorescence intensity (a.u.). Turning to “TCACTAAAACAATAATTAGCCGTAAATACGAGCACGCGTGCGGAGTCACCTAGTGCAG”, the binding signal was 3460 fluorescence intensity (a.u.).

For the sequence “TTCATATTTATTTGATGACGTGGCTAATCCTGGTCGGATCCGGAGTCACCTAGTGCAG”, the binding signal was 40700 fluorescence intensity (a.u.). Consider “TCTGCCAGAAGCTGACGATGATGTGTGTGTTATTATGGTCCGGAGTCACCTAGTGCAG”, for which the binding signal was 5620 fluorescence intensity (a.u.). As for “AAGTCAAACATTTGGCGCCAAATTGAAAATCCCTTTCTACCGGAGTCACCTAGTGCAG”, the binding signal is 3500 fluorescence intensity (a.u.). The result for “TGCTACTTCGCTTGCAGCGTGCGTGTCGGCTAGACCGTCCCGGAGTCACCTAGTGCAG” reads 4640 fluorescence intensity (a.u.). Regarding “GCGGCCCAATGAGTTGGGCCGGGACGGCCACGTGGCGGCACGGAGTCACCTAGTGCAG”, the binding signal was 22300 fluorescence intensity (a.u.). The result for “TAAATAATTGCCATTGCCATGCTGCCACGTGTCATGGGACCGGAGTCACCTAGTGCAG” reads 49900 fluorescence intensity (a.u.); that for “CCACCAAACCCGACCCGCCCGCGTCGCGACCACACCCGCCCGGAGTCACCTAGTGCAG”, 3280 fluorescence intensity (a.u.). To “GTATACCACTGCCGTCAGCAACAGTTGTGTGGAATTGCAGCGGAGTCACCTAGTGCAG” belongs 5300 fluorescence intensity (a.u.); to “ATAAGTGTAGCCATAAGTTTCCGCGTCCAACTTTGATCGTCGGAGTCACCTAGTGCAG”, 3510 fluorescence intensity (a.u.); to “TCCTCTCCTCTCGAGCTCACCTATTATTGGTCCATTCTAGCGGAGTCACCTAGTGCAG”, 3140 fluorescence intensity (a.u.). On to “TCAACACACGTCAATTACAACTATGGGCTTTTGATCGAGACGGAGTCACCTAGTGCAG”, for which the binding signal was 3620 fluorescence intensity (a.u.). For “AACTTATCCTCCGTAATTTGGTAACGTGTTAACACTCAAGCGGAGTCACCTAGTGCAG”, the binding signal was 25300 fluorescence intensity (a.u.). With “ATTAAGATGCCATTCATGACTAGATGTTCTCTGTCAGATGCGGAGTCACCTAGTGCAG”, the binding signal is 3780 fluorescence intensity (a.u.). In the case of “GATGTGACGTGATGTGATGGAAAGTTGGGAGTTGGGGAAACGGAGTCACCTAGTGCAG”, the binding signal is 6040 fluorescence intensity (a.u.). For “ACCTCCGTGCGTGCGGCCTCTGCAACGGCGGGCGTCGCCACGGAGTCACCTAGTGCAG”, the binding signal is 3250 fluorescence intensity (a.u.).

For the sequence “GCCTTCAGCACCTCGTACGTGACACCGTACGTGCACCTCTCGGAGTCACCTAGTGCAG”, the binding signal is 3280 fluorescence intensity (a.u.). For the sequence “TCCTCTCGCCATCGAGTCCGACACGTCCACATCGCCATTACGGAGTCACCTAGTGCAG”, the binding signal was 6100 fluorescence intensity (a.u.).
